Record: PubChem BioAssay AID504764 (Drosophila RNAi Screening Center, 2011)

Screen: 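Knock-downs that raise or lower a Notch target reporter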 (primary screen)
System: Drosophila Kc167 cells
Knock-down reagent: long dsRNA against Drosophila genes
Time to read-out: about 5 days (4 days dsRNA, then 24 h after transfection)
Treatment: transfection of constitutively active membrane-tethered Notch lacking the extracellular domain, read 24 h later
Measured: 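Firefly luciferase from an E(spl)m3 reporter with active Notch, plus control-promoter and uninduced reporter wells for normalisation; unnormalised counts, duplicate wells a and b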
Direction: induced reporter light, run 1, well a and induced reporter light, run 1, well b: higher = more light from the Notch target reporter with active Notch; control promoter light, run 1, well a and control promoter light, run 1, well b: higher = more light from the viral control promoter (cell number, transfection, viability); uninduced reporter light, run 1, well a: higher = more light from the Notch target reporter without active Notch
Rule for the call: 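Hit if the duplicate-averaged log2 ratio of induced to control-promoter light gives a plate-wise z beyond ±2, or induced to uninduced beyond ±1.8; weak-control or discordant-duplicate wells dropped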
Meaning of the calls: active = modifier hit (raised or lowered Notch signal); inactive = not a hit
The screen tested about 22,000 reagents; shown is an unselected part of those with a known target gene and a result. Over the whole deposit, 403 (1.9%) were called active. 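Unnormalised raw counts per well; ratio z-scores behind the hit calls and whether each hit raises or lowers signal are not deposited.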 Not stated in the record: the amount of reagent.

Gene	DRSC id	induced reporter light, run 1, well a	induced reporter light, run 1, well b	control promoter light, run 1, well a	control promoter light, run 1, well b	uninduced reporter light, run 1, well a	outcome
CG17272	DRSC15211	1.52e5	1.62e5	1.78e5	1.56e5	10500	inactive
Pp1-87B (Protein phosphatase 1 at 87B)	DRSC16794	55095	49690	32430	26705	5305	inactive
Golgin84 (Golgin-84)	DRSC15269	1.40e5	1.64e5	1.85e5	2.04e5	13480	inactive
ACC (Acetyl-CoA carboxylase)	DRSC06059	8080	6210	9510	8320	900	inactive
ACC (Acetyl-CoA carboxylase)	DRSC07249	1.18e5	1.14e5	1.39e5	1.54e5	13070	inactive
ppk (pickpocket)	DRSC03595	1.48e5	1.38e5	1.40e5	1.35e5	11220	inactive
Dic4	DRSC10317	95410	97370	1.37e5	1.06e5	4550	inactive
CG8064	DRSC16373	10605	7378	8410	7985	842	inactive
CG11722	DRSC14358	87630	1.28e5	1.10e5	83790	6265	inactive
Adk1 (Adenosine kinase 1)	DRSC15514	84285	86500	86290	66835	4520	inactive
CG30196	DRSC04156	2.16e5	2.03e5	1.86e5	1.79e5	14700	inactive
hep (hemipterous)	DRSC19839	89390	90490	1.85e5	1.93e5	7860	inactive
hep (hemipterous)	DRSC20337	1.32e5	1.15e5	3.28e5	2.66e5	10010	inactive
ASPP	DRSC04305	8490	9265	10700	9915	1750	inactive

Not a retest: entries from further up.
Gene	DRSC id	induced reporter light, run 1, well a	induced reporter light, run 1, well b	control promoter light, run 1, well a	control promoter light, run 1, well b	uninduced reporter light, run 1, well a	outcome
hep (hemipterous)	DRSC20337	1.32e5	1.15e5	3.28e5	2.66e5	10010	inactive
ASPP	DRSC04305	8490	9265	10700	9915	1750	inactive

Next results follow:
Gene	DRSC id	induced reporter light, run 1, well a	induced reporter light, run 1, well b	control promoter light, run 1, well a	control promoter light, run 1, well b	uninduced reporter light, run 1, well a	outcome
so (sine oculis)	DRSC07693	70320	69865	54120	69110	4735	inactive
PH4alphaSG1 (prolyl-4-hydroxylase-alpha SG1)	DRSC15080	1.61e5	1.42e5	1.88e5	1.53e5	11645	inactive
cd (cardinal)	DRSC16157	1.98e5	1.86e5	1.57e5	1.55e5	12195	inactive
BicC (Bicaudal C)	DRSC02005	98450	87525	97180	94500	7730	inactive
CG40498	DRSC07786	87250	1.11e5	1.20e5	93345	8955	inactive
jagn (jagunal)	DRSC12152	1.75e5	1.13e5	84080	71035	9650	inactive
tth (toothrin)	DRSC19435	76620	65395	36605	37795	11585	inactive
RNF220 (ring finger protein 220)	DRSC15652	1.43e5	1.62e5	2.12e5	2.03e5	15278	inactive
CG32695	DRSC17975	1.63e5	1.55e5	2.77e5	3.07e5	10845	inactive
angel	DRSC04670	85760	82240	58925	67580	6580	inactive
dec (defective chorion)	DRSC18759	1.79e5	1.72e5	2.57e5	3.28e5	12685	inactive
can (cannonball)	DRSC10664	1.63e5	1.66e5	2.31e5	1.89e5	11610	inactive
CG33773	DRSC14032	84375	1.06e5	1.24e5	1.04e5	9900	inactive
Marcal1	DRSC02718	65085	52145	51035	47065	3105	inactive
CG12914	DRSC06229	1.76e5	1.39e5	2.21e5	2.28e5	15175	inactive
CG32719	DRSC17525	58120	68970	65345	71110	5570	inactive
Syt4 (Synaptotagmin 4)	DRSC12606	83250	1.15e5	1.27e5	1.13e5	9035	inactive
vanin-like	DRSC17440	73285	71335	64715	56500	4800	inactive
temp (tempura)	DRSC18271	1.93e5	1.67e5	2.01e5	2.50e5	12810	inactive
Cpr65Aw (Cuticular protein 65Aw)	DRSC08794	2.47e5	2.46e5	3.13e5	2.65e5	17590	inactive
